For the assay, the target named is T1, Protease-Activated Receptor 1 (PAR1) (human (endogenous in HUVEC)) (UniProt P25116).
T1 sequence: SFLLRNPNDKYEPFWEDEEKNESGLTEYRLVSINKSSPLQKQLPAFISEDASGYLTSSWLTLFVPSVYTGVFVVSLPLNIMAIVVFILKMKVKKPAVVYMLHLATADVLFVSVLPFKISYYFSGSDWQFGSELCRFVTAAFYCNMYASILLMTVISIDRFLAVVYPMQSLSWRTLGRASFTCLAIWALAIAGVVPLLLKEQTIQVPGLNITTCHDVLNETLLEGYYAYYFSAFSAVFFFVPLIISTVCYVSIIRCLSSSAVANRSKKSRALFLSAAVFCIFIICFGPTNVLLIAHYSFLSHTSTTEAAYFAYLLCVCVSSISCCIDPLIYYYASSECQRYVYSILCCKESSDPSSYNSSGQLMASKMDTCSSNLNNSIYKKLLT
The experiment in a line: co-IP; HUVEC lysates (untreated or Plg-treated) precleared, incubated with antibody to PAR1 or PAR2 or control IgG 4 h at 4 °C, Protein A/G PLUS beads overnight at 4 °C; immunoblot for AP2µ or ENO-1. On the technique in general: Immunoblotting shows a protein as a band on a membrane.

The chains behind the UniProt entries cited, without tags or fusion partners.
UniProt P06733: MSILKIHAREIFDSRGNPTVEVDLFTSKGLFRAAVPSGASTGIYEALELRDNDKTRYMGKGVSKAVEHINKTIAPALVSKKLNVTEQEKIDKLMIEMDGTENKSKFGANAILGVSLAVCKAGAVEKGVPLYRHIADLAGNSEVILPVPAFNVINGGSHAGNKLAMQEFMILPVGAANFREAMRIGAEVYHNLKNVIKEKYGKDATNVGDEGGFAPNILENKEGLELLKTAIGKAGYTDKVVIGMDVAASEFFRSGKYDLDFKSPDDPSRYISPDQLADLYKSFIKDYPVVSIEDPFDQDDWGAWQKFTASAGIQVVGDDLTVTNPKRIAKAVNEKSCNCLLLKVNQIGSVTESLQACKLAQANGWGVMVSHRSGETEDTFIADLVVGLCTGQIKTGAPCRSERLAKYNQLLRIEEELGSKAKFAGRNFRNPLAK
UniProt Q96CW1: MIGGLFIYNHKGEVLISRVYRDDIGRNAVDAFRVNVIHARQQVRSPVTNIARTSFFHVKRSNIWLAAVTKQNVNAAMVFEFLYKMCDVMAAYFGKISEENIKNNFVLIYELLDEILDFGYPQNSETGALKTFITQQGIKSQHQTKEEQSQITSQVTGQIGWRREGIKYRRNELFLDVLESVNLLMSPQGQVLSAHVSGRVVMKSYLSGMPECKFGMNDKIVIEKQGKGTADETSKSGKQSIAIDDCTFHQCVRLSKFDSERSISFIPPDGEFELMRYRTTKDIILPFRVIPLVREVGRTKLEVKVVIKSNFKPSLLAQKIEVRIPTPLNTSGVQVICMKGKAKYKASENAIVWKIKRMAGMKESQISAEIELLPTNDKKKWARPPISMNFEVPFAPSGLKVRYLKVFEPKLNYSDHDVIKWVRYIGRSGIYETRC

These are yes or no findings as the source states them, for the method shown. Binding seen in cells or lysates may run through a third protein. Some entries that bind do so weakly or less than the wild type.

Turning to “Enolase-1 (ENO-1) (from UniProt P06733 1-434)”, the binding result is recorded as “no binding”.

As for “clathrin adaptor protein AP2µ (from UniProt Q96CW1 1-435)”, the binding entry was “binds”.

Values taken from article PMC8961594.
